Consider one molecule from paper PMC12680359.

The chains behind the UniProt entries cited, without tags or fusion partners.
UniProt Q44636: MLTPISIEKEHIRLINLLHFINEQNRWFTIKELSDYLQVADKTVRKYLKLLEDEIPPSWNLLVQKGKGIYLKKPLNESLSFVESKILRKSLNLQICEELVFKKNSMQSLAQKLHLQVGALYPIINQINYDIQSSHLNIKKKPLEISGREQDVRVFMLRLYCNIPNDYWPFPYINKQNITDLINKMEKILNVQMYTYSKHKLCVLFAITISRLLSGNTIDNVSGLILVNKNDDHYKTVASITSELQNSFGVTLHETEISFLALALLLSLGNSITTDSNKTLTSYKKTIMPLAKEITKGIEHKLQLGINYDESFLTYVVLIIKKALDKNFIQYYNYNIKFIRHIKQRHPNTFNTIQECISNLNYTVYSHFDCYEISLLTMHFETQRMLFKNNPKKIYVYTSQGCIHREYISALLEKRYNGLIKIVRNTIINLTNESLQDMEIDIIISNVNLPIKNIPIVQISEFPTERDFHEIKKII

These are yes or no findings as the source states them, for the method shown. Binding seen in cells or lysates may run through a third protein. A yes stands for co-enrichment or nearness to the bait. Other partners may have been found.

The target in this assay is AtxA-His6 (AtxA-TEV-His6, expressed from pAMY1-atxA) (B. anthracis) (UniProt Q44636). The assay is described as follows: affinity purification with mass spectrometry; […]; binding […] at 4°C; […].

B1: pyruvate carboxylase Pyc (enzyme, UniProt A0A6L7HFM3 1-1148)
chain: MTKLQRIQKVLVANRGEIAIRVFRACSELGLKTVAIYSKEDSGSYHRYKADESYLVGEGKKPIDAYLDIEGIIEIAKSNHVDAIHPGYGFLSENIQFAKRCEEEGIIFIGPKSKHLDMFGDKVKARTQAQLAQIPVIPGSDGPVDSLEEVKEFAEKYDYPIIIKASLGGGGRGMRIVRTSEELRESYNRAKSEAKAAFGNDEVYVEKFVEKPKHIEVQILADEEGNVVHLYERDCSVQRRHQKVVEIAPSVSLSDDLRQRICEAAVKLTKNVNYLNAGTVEFLVKDDNFYFIEVNPRVQVEHTITEMITGVDIVQSQILIADGHALHSKMVGVPKQEEVVVHGFAIQSRVTTEDPLNNFMPDTGKIMAYRSGGGFGVRLDTGNSFQGAVIAPYYDSLLVKVTTWALTFEQAAAKMERNLKEFRIRGIKTNIPFLENVVKHKNFLSGEYDTSFIDASPELFLFPKRKDRGTKMLNYIGTVTVNGFPGVGKKEKPIFPDARIPNVLHSEPIQNGTKQILDERGADGLVKWVQDQKRVLLTDTTFRDAHQSLLATRIRTKDLHQIAEPTARMLPNLFSAEMWGGATFDVAYRFLKEDPWERLLDLREKMPNVLFQMLLRSSNAVGYKNYPDNLIQKFVECSAQAGIDVFRIFDSLNWVEGMRVAIDAVRDTGKIAEATMCYTGDIHDPMRSKYDLNYYKNLAKELEVSGAHILGIKDMAGLLKPNAAYDLVSALKETVSIPIHLHTHDTSGNGILTYTKAIEAGVDIVDVAVSSMAGQTSQPSANTLYYALGGNERQPDVNIDSLEKLSHYWEDVRKYYAPFESGMNAPHTEVYMHEMPGGQYSNLQQQAKVVGLGDRFDEVKVMYRRVNDMFGDIVKVTPSSKVVGDMALFMVQNHLTEQDVLERGHSMDFPGSVVEMFSGDLGQPYGGFPKKLQEIILKGKEPLTVRPGELLEPVDFDALKEELFHKLGREVTMFDVVAYALYPKVFMDYEKVAELYGNVSVLDTPTFFYGMRLGEEIDVEIEQGKTLMVKLVSIGELQPDGNRVLYLEFNGQPREIVVKDESVKATVAQRVKGNRENPNHISATMPGTVIKVVVKEGDEVKKGDSMAITEAMKMETTVQAPFNGKVKKVYVNDGDAIQTGDLLIELDH
On to B1, for which the binding result is “binds”.
